Measurements taken from PubChem BioAssay AID504444 (National Center for Advancing Translational Sciences (NCATS), 2011).
Several values for one entry are separate records, joined by “and”; a condition that tells them apart may be missing. Identical values can stand only once. Hit rate of the full screen: of about 360,000 compounds, about 7,500 (2.1%) were called active. The shares of active, inactive and inconclusive entries below differ from those in the screen. Calls come from the whole dose curve; as a rule, active = well fitted inhibition curve with a large enough effect; inconclusive = small, poorly fitted or top-dose-only effect, or effect the other way; inactive = flat fitted curve, though single readings scatter. A potency beside an inconclusive call is a rough fit, not a confirmed value.

Experiment: Nrf2 qHTS screen for inhibitors; note: nearly all actives have a fitted effect of over 60% in size
Conditions: A549 ARE-Fluc reporter, luciferase luminescence, 18-24 h; activity change, negative = inhibition: at 46 µM (top of the series)
In short: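 Reporter: ARE-Fluc in A549. Exposure: 18-24 h, 37 °C, 5% CO2, 5% FBS OPTI-MEM. Readouts: fluorescent cytotoxicity (CellTiter-Fluor), then luminescent Nrf2 signal after BugLite.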
% is set by controls: 0 for no effect and ±100 for the full control effect; potency is the fitted concentration of half-maximal effect.

| Compound | Potency | activity change, negative = inhibition |
| --- | --- | --- |
| COc1cccc(CN(Cc2cccnc2)S(=O)(=O)c2ccc(-n3cnnn3)c(C)c2)c1 | inconclusive: 29.1 µM [falling, single point] | – |
| O=C(NC(=S)Nc1ccc(N2CCCCC2)cc1)c1ccco1 | inconclusive: 2.06 µM [activator, partial curve] | – |
| CCN(CC)C(=O)C1CCN(c2nnc(C)c3c(C)n(-c4ccc(Cl)cc4)nc23)CC1 | inconclusive: 29.1 µM [activator, single point] | – |
| CCCCn1c(SCC(=O)NC(C)CC)nc2ccc(N3CCOCC3)cc2c1=O (stereo not drawn) | – | inactive: 4.61% |
| CCCOc1ccc(CNC(=O)C2CCCN(c3nc4c(C)cc(C)cc4s3)C2)cc1 (stereo not drawn) | inconclusive: 3.26 µM [activator, full curve, poor fit] | – |
| CCOc1ccccc1N1CCN(C(=O)c2ccccc2OCc2c(C)noc2C)CC1 | – | inactive: -11.9% |
| O=C(CSc1nccc(-c2cccs2)n1)Nc1ccc(F)c(Cl)c1 | inconclusive: 29.1 µM [falling, single point] | – |
| Cc1[nH]c2ccccc2c1C1(O)C(=O)N(Cc2ccccc2Cl)c2ccccc21 (stereo not drawn) | – | inactive: 11.2% |
| Clc1ccccc1CN1CCN(/N=C/c2ccncc2)CC1 | inconclusive: 29.1 µM [falling, single point] | – |
| Cc1cc(Cl)c(S(=O)(=O)N2CCCC2)cc1OCC(N)=O | inconclusive: 9.2 µM [falling, partial curve, poor fit] | – |
| CCC1CN(C(=O)Nc2ccc(Br)cc2F)c2ccccc2S1 (stereo not drawn) | inconclusive: 29.1 µM [activator, single point] | – |
| CC(=O)Nc1ccc(C(=O)CSc2nccc(=O)[nH]2)cc1 | inconclusive: 25.9 µM [activator, partial curve, poor fit] | – |
| COc1ccc(/C=N/Nc2nc(Nc3ccccc3)nc(N3CCCC3)n2)cc1 | inconclusive: 6.51 µM [activator, partial curve, poor fit] | – |
| O=C(NCC(c1ccc(Cl)cc1)N1CCCCC1)c1ccccc1F (stereo not drawn) | – | inactive: 8.42% |
| COC(=O)C(NC(=O)CCc1c(C)nc2c(c(C)nn2-c2ccccc2)c1C)C(C)C (stereo not drawn) | inactive and inconclusive: 8.2 µM [activator, partial curve, poor fit] | – |
| Cc1ccccc1NC(=O)[C@H](CSCc1ccccc1)N1Cc2ccccc2C1=O | inconclusive: 20.6 µM [falling, single point] | – |
| Cc1ccc(C(=O)NNC(=O)c2ccccc2OCc2c(C)noc2C)cc1 | inconclusive: 3.66 µM [activator, partial curve, poor fit] | – |
| Cc1ccc2c(c1)Cc1c(nc(-c3ccc(Cl)cc3)nc1SCC(=O)N1CCCCC1)O2 | – | inactive: -7.42% |
